This test can be described thus: qHTS Assay for Lipid Storage Modulators in Drosophila S3 Cells.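 On cell number change: cells counted by Cell Tracker Red CMTPX staining in the red channel.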 The settings on record: BODIPY lipid droplet fluorescence, 18-24 h; for cell number change: measured here: cell count max response, cells fed with added oleic acid. The procedure, abridged:
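Drosophila S3 cells got compounds at several concentrations plus oleic acid (400 uM solution). Laser-scanning cytometry with 488 nm excitation read lipid droplets at 500-530 nm and cells at 575-640 nm. Percent activity was relative to 20 uM Triacsin C.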
On the technique in general: In qHTS, concentration-response curves come from the screen itself.

Where [1] appears, read: measured here: cell number channel AC50, cells fed with added oleic acid.
[2] abbreviates: measured here: lipid fluorescence (Fed channel) AC50, cells fed with added oleic acid.

This is one part of the list. Further columns of the screen follow, without active or inactive calls. Compounds called inactive in the main read-out are mostly missing here. Potencies come from curve fits of mixed quality, noted in brackets.

For `CC(C)CNc1c(N)c(=O)oc2ccccc12`, the cell number change stood at 44.2%. Moreover, the half-maximal activity concentration (AC50) (commonly the concentration at which the activity in the assay is half-maximal) under setting [1] is 7.31 µM [rising, partial curve]. Under setting [2], the AC50 is 6.51 µM [rising, single point].

Regarding `COc1ccc(NC(=O)C2CCCN(S(=O)(=O)c3ccc4c(c3)oc(=O)n4C)C2)cc1OC` (stereo not drawn), the cell number change was 40.5%. Besides, the AC50 under setting [1] was 29.1 µM [rising, single point].

Turning to `CC1=CC(=C(C#N)C#N)C=C(C)N1CCN1CCN(C(=O)Nc2cccc(Cl)c2)CC1`, the cell number change was -8.49%. The AC50 under setting [2] was 14.6 µM [falling, single point].

Consider `O=C(CCNC(=O)c1ccc(Br)cc1)Nc1ccccc1N1CCOCC1`, for which, under setting [1], the AC50 was 1.46 µM [rising, partial curve].

As to `CCCCNC(=O)[C@@H]1CCCN1S(=O)(=O)c1cccc2cccnc12`, the cell number change turned out to be 22.1%. For the same compound, the AC50 under setting [2] was 0.731 µM [rising, full curve, poor fit].

Turning to `CCC(=O)NC(=S)NNC(=O)c1ccccc1[N+](=O)[O-]`, the cell number change is -18.5%. The AC50 under setting [2] was 0.13 µM [falling, full curve, poor fit].

Consider `O=C1NC(=S)N/C1=C/c1cccc2ccccc12`, for which the cell number change was -9.72%. Moreover, under setting [2], the AC50 is 2.91 µM [falling, full curve].

Turning to `Cc1ccc(-c2nn(C)c(=O)c3ccccc23)cc1CN1CCOCC1`, the cell number change is -9.42%. For the same compound, under setting [1], the AC50 was 0.0731 µM [falling, full curve, poor fit]. In addition, the AC50 under setting [2] was 2.91 µM [rising, partial curve].

Regarding `COc1cc(NC(=O)c2cccc(C)c2)ccc1NC(=O)c1cc2ccccc2o1`, the cell number change is -19.4%. Under setting [2], the AC50 is 29.1 µM [rising, single point].

Consider `Clc1ccc(-n2cccc2)cn1`, for which the cell number change stood at 21.6%.

As to `COc1ccc(C(=O)NNC(=O)COc2ccc(Cl)cc2C)cc1S(=O)(=O)N1CCOCC1`, the cell number change came to 49.5%.

Take `CN(C)C(=O)c1ccccc1-c1ccccc1`: the cell number change was -18.5%.

Turning to `Cc1ccc(Nc2nc(C)cc(C)c2C(N)=O)cc1`, the cell number change is 100%. The AC50 under setting [1] is 8.2 µM [rising, partial curve]. Besides, the AC50 under setting [2] is 9.2 µM [rising, partial curve].

In the case of `COc1ccccc1NS(=O)(=O)c1ccc(NC(=O)Cc2cccs2)cc1`, the cell number change amounted to 19.9%. The AC50 under setting [2] is 5.8 µM [rising, full curve, poor fit].

For the compound `N#C/C(=C\c1cccnc1)c1ccccn1`, the cell number change is -2.78%.

Turning to `CCc1ccc(Nc2ncnc3nc[nH]c23)cc1`, the half-maximal activity concentration (AC50) under setting [2] is 6.51 µM [rising, single point].

Turning to `O=C(CCNS(=O)(=O)c1ccccc1)NNC(=O)COc1ccc(Cl)cc1`, the cell number change turned out to be 6.22%.

`Cc1nc(=O)c(-c2ccccc2)c(C)n1CCCO`: the cell number change is -76.5%. Moreover, the AC50 under setting [1] was 6.51 µM [falling, full curve]. In addition, the half-maximal activity concentration (AC50) under setting [2] was 1.16 µM [falling, partial curve].

For the origin of these results see PubChem BioAssay AID2685 (National Center for Advancing Translational Sciences (NCATS), 2010).
